Test results as given in article PMC9498672.
No constants are given. Whether binding was seen depends on the method and setting. In cells and extracts the contact can be indirect. Some binding calls cover weakened binding; strength is not graded here. Tags and fused reporters may be left off the sequences shown.

Amino acid sequences for entries named in this document (tags omitted).
UniProt Q96SB4: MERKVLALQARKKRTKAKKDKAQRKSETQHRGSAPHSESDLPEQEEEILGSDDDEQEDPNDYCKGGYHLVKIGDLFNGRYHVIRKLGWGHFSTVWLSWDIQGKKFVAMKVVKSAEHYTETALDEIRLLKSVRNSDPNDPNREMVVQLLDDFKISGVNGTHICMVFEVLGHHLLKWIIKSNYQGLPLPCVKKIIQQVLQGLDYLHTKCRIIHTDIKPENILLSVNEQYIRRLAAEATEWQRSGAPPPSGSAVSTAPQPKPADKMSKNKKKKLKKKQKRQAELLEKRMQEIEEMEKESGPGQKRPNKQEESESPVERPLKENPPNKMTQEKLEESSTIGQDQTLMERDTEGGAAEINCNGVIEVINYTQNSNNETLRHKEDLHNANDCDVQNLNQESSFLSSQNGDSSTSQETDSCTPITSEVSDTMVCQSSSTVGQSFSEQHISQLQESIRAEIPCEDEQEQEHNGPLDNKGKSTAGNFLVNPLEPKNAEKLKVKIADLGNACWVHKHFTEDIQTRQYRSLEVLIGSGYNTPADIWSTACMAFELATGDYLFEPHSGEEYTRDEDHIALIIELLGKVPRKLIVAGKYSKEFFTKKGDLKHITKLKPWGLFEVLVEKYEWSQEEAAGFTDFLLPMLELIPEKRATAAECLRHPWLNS
UniProt P31751: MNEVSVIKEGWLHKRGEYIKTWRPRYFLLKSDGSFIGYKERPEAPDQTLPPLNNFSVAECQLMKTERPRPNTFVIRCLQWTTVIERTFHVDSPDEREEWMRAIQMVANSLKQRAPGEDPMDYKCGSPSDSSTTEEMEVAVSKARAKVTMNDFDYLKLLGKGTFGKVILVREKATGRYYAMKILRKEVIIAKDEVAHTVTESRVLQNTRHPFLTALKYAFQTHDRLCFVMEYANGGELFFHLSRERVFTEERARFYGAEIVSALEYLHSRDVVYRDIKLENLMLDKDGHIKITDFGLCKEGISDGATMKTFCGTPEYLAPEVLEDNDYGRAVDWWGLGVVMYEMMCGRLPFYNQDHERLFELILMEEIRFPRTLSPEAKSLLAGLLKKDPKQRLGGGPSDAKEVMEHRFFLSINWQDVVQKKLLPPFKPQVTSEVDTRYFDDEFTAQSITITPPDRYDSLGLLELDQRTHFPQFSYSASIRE
UniProt P49759: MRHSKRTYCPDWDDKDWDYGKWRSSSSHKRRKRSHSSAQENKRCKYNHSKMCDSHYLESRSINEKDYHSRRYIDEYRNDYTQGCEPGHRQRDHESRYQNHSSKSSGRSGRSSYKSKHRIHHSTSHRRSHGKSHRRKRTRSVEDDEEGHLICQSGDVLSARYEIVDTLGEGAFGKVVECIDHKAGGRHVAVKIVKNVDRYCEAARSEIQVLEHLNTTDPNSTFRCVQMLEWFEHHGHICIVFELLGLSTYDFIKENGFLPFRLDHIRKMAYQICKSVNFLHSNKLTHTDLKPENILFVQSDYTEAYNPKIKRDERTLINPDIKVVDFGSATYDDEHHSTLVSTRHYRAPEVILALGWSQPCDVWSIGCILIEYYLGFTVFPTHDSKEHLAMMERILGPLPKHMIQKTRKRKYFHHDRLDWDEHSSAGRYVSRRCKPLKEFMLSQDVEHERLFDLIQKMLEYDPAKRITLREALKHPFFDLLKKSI

B1: RNA binding motif 20 (RBM20), wild type, 8xHis-tagged (protein, UniProt E9PT37 1-1207)
chain: MVLAAAMSQDADPSGPEQPDRDACIVPGVQGPPAPQGQQGMQPLPPPLPPPPQPQSSLPQIIQNAAKLLDKNPFSVSSQNPLLTSPASVQLAQIQAQLTLHRLKMAQTAVTNNTAAATVLNQVLSKVAMSQPLFNQLRHPSVLGTTHGPTGVSQHAATVPSAHFPSTAIAFSPPSQAGGPGPSVSLPSQPPNAMVVHTFSGVVPQTPAQPAVILSIGKAGPTPATTGFYDYGKANPGQAYGSETEGQPGFLPASASAAASGGVTYEGHYSHTGQDGQATFSKDFYGPSAQGSHAAGGFPADQAGSMKGDVGGLLQGTNSQWERPSGFSGQNKADITAGPGLWAPPASQPYELYDPEEPTSDRAPPAFGSRLNNSKQGFNCSCRRTKEGQAMLSVRPLQGHQLNDFRGLAPLHLPHICSICDKKVFDLKDWELHVKGKLHAQKCLLFSESAGLRSICATGEGTLSASANSTAVYNPTGNEDYTSTLGTSYAAIPTRAFAQSNPMFPSASSGTNFAQRKGAGRVVHICNLPEGSCTENDVINLGLPFGKVTNYILMKSTNQAFLEMAYTEAAQAMVQYYQEKPALINGEKLLIRMSTRYKELQLKKPGKNVAAIIQDIHSQRERCMLREADRYGPERPRSRSPMSRSLSPRSHSPPGPSRADWGNGRDSYAWRDEDRETVPRRENGEDKRDRLDVWAHDRKHYPRQLDKAELDERLEGGRGYREKYLKSGSPGPLHSASGYKGREDGYHRKETKAKLDKHPKQQQQDVPGRSRRKEEARLREPRHPHPEDSGKEEDLEPKVTRAPEGTKSKQSEKSKTKRADRDQEGADDKKEGRGAENEAGTEEQEGMEESPASVGTQQEGTESSDPENTRTKKGQDCDSGSEPEGDNWYPTNMEELVTVDEVGEEDFIMEPDIPELEEIVPIDQKDKILPEICPCVTATLGLDLAKDFTKQGETLGNGDAELSPKLPGQVPSTSTSCPNDTDMEMAGLNLDAERKPAESETGLSPEVSNCYEKEARGAEGSDVRLAPAAQRMSSPQPADERAQQSSPFLDDCKARGSPEDGPHEVSPLEEKASPTTESDLQSQACQENSRYTETRSLNSRSPEFTEAELKEPLSLPSWEPEVFSELSIPLGVEFVVPRTGFYCKLCGLFYTSEEAAKVSHCRSTVHYRNLQKYLSQLAEEGLKETEGVDSPSPERSGIGPHLERKKL

Key:
[1] = target: T1, RNA binding motif 20 (RBM20), wild type, 8xHis-tagged (UniProt E9PT37); assay: co-IP; HeLa cells co-transfected with 8xHis-RBM20 and one kinase construct, lysates 48 h later; anti-His-tag antibody coupled to resin (Pierce Co-IP kit) captured RBM20; blots with anti-RBM20, anti-SRPK1, anti-CLK1 and anti-HA-tag antibodies; control resin without antibody
T1 sequence: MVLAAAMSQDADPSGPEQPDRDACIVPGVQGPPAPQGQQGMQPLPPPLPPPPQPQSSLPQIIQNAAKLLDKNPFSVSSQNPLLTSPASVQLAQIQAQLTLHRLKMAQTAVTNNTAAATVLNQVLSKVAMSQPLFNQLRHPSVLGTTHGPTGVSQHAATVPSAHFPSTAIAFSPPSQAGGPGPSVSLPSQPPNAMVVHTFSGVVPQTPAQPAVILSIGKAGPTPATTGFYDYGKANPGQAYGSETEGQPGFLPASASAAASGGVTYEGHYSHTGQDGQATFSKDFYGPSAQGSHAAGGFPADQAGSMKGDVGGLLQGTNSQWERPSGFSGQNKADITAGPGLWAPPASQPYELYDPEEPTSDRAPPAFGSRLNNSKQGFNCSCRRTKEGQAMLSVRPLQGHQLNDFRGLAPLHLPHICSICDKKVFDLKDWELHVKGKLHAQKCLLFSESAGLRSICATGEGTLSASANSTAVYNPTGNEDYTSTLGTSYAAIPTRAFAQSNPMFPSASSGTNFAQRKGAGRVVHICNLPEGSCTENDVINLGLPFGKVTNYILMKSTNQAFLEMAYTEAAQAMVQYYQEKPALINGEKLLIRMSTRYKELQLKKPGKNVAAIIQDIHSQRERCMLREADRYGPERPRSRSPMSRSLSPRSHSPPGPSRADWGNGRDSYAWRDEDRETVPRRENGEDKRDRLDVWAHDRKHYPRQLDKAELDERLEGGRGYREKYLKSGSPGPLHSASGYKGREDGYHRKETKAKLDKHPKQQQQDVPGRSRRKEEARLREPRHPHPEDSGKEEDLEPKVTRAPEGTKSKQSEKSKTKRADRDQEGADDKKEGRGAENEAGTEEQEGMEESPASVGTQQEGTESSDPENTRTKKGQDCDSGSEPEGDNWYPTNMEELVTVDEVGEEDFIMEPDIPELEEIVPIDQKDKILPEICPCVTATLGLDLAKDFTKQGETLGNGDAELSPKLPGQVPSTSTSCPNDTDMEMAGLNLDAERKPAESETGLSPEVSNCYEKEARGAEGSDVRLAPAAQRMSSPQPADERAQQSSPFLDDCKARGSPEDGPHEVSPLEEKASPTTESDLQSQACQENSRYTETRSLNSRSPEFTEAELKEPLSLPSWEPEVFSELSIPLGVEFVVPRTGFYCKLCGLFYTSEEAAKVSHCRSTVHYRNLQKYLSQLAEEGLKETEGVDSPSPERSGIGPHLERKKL

[2] = target: SR protein-specific kinase 1 (SRPK1) (UniProt Q96SB4); assay: co-IP; reciprocal: HeLa cells co-transfected with 8xHis-RBM20 and one kinase construct; SRPK1, CLK1 or HA-tagged AKT2 used as bait (antibody-coupled resin, Pierce Co-IP kit), RBM20 detected by blot; control resin without antibody
[3] = target: HA-tagged AKT2 (pcDNA3-Myr-HA-Akt2) (UniProt P31751); assay: as above
[4] = target: cdc2-like kinase 1 (CLK1) (UniProt P49759); assay: as above

Row | Molecule | binding [1] | binding [2] | binding [3] | binding [4]
1 | HA-tagged AKT2 (pcDNA3-Myr-HA-Akt2) (from UniProt P31751 1-481) (enzyme) | binds | – | – | –
2 | SR protein-specific kinase 1 (SRPK1) (from UniProt Q96SB4 1-655) (enzyme) | binds | – | – | –
3 | cdc2-like kinase 1 (CLK1) (from UniProt P49759 1-484) (enzyme) | binds | – | – | –
4 | B1 | – | binds | binds | binds
